Experimental data from patent US6833256.
These are yes or no findings as the source states them, for the method shown. Some binding calls cover weakened binding; strength is not graded here.

How the values were obtained:
[1] = molecular target: T1, common type I IFN receptor on Madin Darby bovine kidney (MDBK) cells (bovine (MDBK cells)) (UniProt Q04790+Q95141); experiment: competitive displacement of 3 nM 125I-ovIFN-tau1mod from MDBK cells by 300 nM unlabeled IFN; compared with human IFN-alphaA
T1 sequence (looked up) 1: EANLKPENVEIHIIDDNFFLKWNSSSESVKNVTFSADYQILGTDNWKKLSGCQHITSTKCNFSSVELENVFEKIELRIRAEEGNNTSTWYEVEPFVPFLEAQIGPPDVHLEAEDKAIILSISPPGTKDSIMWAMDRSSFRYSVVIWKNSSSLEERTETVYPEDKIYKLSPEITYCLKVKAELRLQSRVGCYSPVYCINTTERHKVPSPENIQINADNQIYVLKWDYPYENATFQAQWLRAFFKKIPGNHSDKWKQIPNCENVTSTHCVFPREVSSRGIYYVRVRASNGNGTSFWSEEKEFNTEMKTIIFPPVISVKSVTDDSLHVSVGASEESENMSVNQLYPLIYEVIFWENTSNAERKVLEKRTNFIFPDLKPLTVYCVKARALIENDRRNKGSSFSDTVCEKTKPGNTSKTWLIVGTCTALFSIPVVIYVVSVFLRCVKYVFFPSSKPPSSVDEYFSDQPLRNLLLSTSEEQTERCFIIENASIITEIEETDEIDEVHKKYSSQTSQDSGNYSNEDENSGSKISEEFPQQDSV
T1 sequence (looked up) 2: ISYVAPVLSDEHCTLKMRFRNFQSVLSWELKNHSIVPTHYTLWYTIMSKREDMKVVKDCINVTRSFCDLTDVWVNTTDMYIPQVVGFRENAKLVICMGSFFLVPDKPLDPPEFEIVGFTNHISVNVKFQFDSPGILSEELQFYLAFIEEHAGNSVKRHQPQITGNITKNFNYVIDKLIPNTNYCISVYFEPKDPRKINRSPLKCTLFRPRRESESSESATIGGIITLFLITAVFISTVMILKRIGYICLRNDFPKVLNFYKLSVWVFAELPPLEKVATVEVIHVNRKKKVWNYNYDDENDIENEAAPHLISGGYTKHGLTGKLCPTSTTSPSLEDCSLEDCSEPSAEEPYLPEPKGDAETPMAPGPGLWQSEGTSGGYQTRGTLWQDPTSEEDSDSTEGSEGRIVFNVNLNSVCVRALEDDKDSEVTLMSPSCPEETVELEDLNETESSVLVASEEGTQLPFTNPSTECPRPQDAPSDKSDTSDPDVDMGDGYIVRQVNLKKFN

[2] = molecular target: T1, common type I IFN receptor on Madin Darby bovine kidney (MDBK) cells (bovine (MDBK cells)); experiment: competitive displacement of 3 nM 125I-ovIFN-tau1mod from MDBK cells by 300 nM unlabeled IFN
[3] = molecular target: T1, common type I IFN receptor on Madin Darby bovine kidney (MDBK) cells (bovine (MDBK cells)); experiment: competitive displacement of 125I-ovIFN-tau1mod from MDBK cells; relative to the parental IFN-tau
[4] = molecular target: T1, common type I IFN receptor on Madin Darby bovine kidney (MDBK) cells (bovine (MDBK cells)); experiment: competitive displacement of 3 nM 125I-ovIFN-tau1mod from MDBK cells by 300 nM unlabeled IFN; still not to the same extent as human IFN-alphaA
[5] = molecular target: T1, common type I IFN receptor on Madin Darby bovine kidney (MDBK) cells (bovine (MDBK cells)); experiment: competitive displacement of 125I-ovIFN-tau1mod from MDBK cells

B1: ovine IFN-tau1mod (native ovine interferon-tau isoform 1mod) (ligand)
chain: CYLSRKLMLDARENLKLLDRMNRLSPHSCLQDRKDFGLPQEMVEGDQLQKDQAFPVLYEMLQQSFNLFYTEHSSAAWDTTLLEQLCTGLQQQLDHLDTCRGQGMGEEDSELGNMDPIVTVKKYFQGIYDYLQEKGYSDCAWEIVRVEMMRALTVSTTLQKRLTKMGGDLNSP
- binding [1]: binds

B2: IFN-tau 24 L:I mutant (ligand)
chain: CYLSRKLMLDARENLKLLDRMNRISPHSCLQDRKDFGLPQEMVEGDQLQKDQAFPVLYEMLQQSFNLFYTEHSSAAWDTTLLEQLCTGLQQQLDHLDTCRGQGMGEEDSELGNMDPIVTVKKYFQGIYDYLQEKGYSDCAWEIVRVEMMRALTVSTTLQKRLTKMGGDLNSP
- binding [2]: binds

B3: IFN-tau 34 K:H mutant (ligand)
chain: CYLSRKLMLDARENLKLLDRMNRLSPHSCLQDRHDFGLPQEMVEGDQLQKDQAFPVLYEMLQQSFNLFYTEHSSAAWDTTLLEQLCTGLQQQLDHLDTCRGQGMGEEDSELGNMDPIVTVKKYFQGIYDYLQEKGYSDCAWEIVRVEMMRALTVSTTLQKRLTKMGGDLNSP
- binding [2]: binds

B4: IFN-tau 26 P:L mutant (ligand)
chain: CYLSRKLMLDARENLKLLDRMNRLSLHSCLQDRKDFGLPQEMVEGDQLQKDQAFPVLYEMLQQSFNLFYTEHSSAAWDTTLLEQLCTGLQQQLDHLDTCRGQGMGEEDSELGNMDPIVTVKKYFQGIYDYLQEKGYSDCAWEIVRVEMMRALTVSTTLQKRLTKMGGDLNSP
- binding [3]: binds
- binding [4]: binds

B5: IFN-tau 13 E:R mutant (ligand)
chain: CYLSRKLMLDARRNLKLLDRMNRLSPHSCLQDRKDFGLPQEMVEGDQLQKDQAFPVLYEMLQQSFNLFYTEHSSAAWDTTLLEQLCTGLQQQLDHLDTCRGQGMGEEDSELGNMDPIVTVKKYFQGIYDYLQEKGYSDCAWEIVRVEMMRALTVSTTLQKRLTKMGGDLNSP
- binding [5]: binds
